Experimental data as given in article PMC5424160.
Construct, isoform or probe ends are uncertain for at least one entry. For part of these data: No signal at the amounts used counts as a negative.

Amino acid sequences for entries named in this document (tags omitted).
UniProt O00255, whole entry: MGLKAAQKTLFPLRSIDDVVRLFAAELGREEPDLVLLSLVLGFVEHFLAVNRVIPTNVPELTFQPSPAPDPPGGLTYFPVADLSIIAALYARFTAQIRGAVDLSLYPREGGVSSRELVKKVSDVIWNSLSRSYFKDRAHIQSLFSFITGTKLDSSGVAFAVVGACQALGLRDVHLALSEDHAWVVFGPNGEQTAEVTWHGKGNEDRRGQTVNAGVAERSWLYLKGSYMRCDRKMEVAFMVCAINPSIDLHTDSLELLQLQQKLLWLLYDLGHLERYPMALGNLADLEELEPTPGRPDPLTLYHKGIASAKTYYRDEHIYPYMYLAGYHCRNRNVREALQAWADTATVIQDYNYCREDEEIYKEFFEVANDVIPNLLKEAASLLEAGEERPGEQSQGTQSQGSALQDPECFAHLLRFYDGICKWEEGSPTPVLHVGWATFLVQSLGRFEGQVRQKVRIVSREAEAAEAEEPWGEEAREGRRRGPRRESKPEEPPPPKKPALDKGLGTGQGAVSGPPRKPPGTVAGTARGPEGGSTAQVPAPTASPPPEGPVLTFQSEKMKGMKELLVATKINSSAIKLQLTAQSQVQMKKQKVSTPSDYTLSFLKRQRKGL

What was measured:
Menin = Menin (UniProt O00255); assay: EMSA; details: Menin alone; EMSA: 50 mM HEPES (pH not stated), 150 mM NaCl, 0.2% BSA, 0.02% Tween 20, 0.5 mM MgCl2, 100 uM DTT; 60 min at room temperature; 5% gel; recombinant protein; protein details: His (pET-22b(+))
MYC (c-Myc) + MAX = assay: EMSA; details: MYC/MAX heterodimer; EMSA: 50 mM HEPES (pH not stated), 150 mM NaCl, 0.2% BSA, 0.02% Tween 20, 0.5 mM MgCl2, 100 uM DTT; 60 min at room temperature; 5% gel; recombinant protein; protein details: His (pET-22b(+)),His (pET-22b(+))
[1] = test system: MYC (c-Myc) + MAX + Menin; assay: EMSA supershift; details: anti-Menin antibody, Menin bound only with both MYC and MAX present; EMSA: 50 mM HEPES (pH not stated), 150 mM NaCl, 0.2% BSA, 0.02% Tween 20, 0.5 mM MgCl2, 100 uM DTT; 60 min at room temperature; 5% gel; recombinant protein; protein details: His (pET-22b(+)),His (pET-22b(+)),His (pET-22b(+))

“GGAAGCAGACCACGTGGTCTGCTTCC (double strand) [canonical E-box probe]”: no binding (Menin); binds (MYC (c-Myc) + MAX); binds [1].
